In this assay the target is T1, endogenous CPS1 (HeLa cells) (human (endogenous in HeLa)) (UniProt P31327).
T1 sequence: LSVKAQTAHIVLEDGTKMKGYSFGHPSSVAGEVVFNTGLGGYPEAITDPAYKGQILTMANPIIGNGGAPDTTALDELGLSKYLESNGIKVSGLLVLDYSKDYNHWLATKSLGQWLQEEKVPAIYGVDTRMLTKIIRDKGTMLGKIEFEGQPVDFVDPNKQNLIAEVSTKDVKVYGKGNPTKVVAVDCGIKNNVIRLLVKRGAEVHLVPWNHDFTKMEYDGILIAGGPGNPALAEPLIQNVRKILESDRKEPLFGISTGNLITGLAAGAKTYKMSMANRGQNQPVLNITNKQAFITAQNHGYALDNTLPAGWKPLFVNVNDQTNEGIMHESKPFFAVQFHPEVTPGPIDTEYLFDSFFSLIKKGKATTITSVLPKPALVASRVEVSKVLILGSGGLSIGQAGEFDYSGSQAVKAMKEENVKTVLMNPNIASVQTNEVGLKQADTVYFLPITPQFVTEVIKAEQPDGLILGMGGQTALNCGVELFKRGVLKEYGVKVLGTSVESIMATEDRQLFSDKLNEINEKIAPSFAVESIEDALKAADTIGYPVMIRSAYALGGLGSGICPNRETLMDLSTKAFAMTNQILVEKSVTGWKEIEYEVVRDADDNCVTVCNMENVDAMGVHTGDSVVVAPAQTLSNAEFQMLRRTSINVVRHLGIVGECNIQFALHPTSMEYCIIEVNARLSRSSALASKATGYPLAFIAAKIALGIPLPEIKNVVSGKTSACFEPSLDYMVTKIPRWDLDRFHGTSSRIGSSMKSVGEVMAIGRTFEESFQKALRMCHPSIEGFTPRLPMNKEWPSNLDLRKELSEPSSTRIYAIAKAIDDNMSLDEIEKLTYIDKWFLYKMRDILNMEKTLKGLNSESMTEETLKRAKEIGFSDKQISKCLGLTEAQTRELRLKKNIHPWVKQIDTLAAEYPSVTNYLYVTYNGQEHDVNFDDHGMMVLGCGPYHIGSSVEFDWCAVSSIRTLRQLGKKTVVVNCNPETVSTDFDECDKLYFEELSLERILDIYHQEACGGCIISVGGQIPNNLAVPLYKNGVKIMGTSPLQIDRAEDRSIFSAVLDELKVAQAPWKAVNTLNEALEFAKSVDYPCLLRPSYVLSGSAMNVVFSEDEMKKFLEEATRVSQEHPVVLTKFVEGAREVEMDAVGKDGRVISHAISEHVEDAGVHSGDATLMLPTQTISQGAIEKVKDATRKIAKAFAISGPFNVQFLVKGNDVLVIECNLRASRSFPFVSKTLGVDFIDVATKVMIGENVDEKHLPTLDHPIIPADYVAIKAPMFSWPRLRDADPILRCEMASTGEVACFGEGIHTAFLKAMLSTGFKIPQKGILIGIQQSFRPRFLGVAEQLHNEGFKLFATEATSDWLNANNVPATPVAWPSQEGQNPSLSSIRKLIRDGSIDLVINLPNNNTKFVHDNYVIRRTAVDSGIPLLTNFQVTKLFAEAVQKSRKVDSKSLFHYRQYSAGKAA
Description: co-IP; FLAG-tagged wild-type, D177N or Y891F OGA overexpressed in HeLa cells; co-IP with anti-CPS1 and anti-FLAG antibody; CPS1 endogenous.

No constants are given. Whether binding was seen depends on the method and setting. In cells and extracts the contact can be indirect. Some entries that bind do so weakly or less than the wild type. Tags and fused reporters may be left off the sequences shown.

B1: FLAG-tagged wild-type OGA (O-GlcNAcase) (enzyme, UniProt O60502 1-916)
chain: MVQKESQATLEERESELSSNPAASAGASLEPPAAPAPGEDNPAGAGGAAVAGAAGGARRFLCGVVEGFYGRPWVMEQRKELFRRLQKWELNTYLYAPKDDYKHRMFWREMYSVEEAEQLMTLISAAREYEIEFIYAISPGLDITFSNPKEVSTLKRKLDQVSQFGCRSFALLFDDIDHNMCAADKEVFSSFAHAQVSITNEIYQYLGEPETFLFCPTEYCGTFCYPNVSQSPYLRTVGEKLLPGIEVLWTGPKVVSKEIPVESIEEVSKIIKRAPVIWDNIHANDYDQKRLFLGPYKGRSTELIPRLKGVLTNPNCEFEANYVAIHTLATWYKSNMNGVRKDVVMTDSEDSTVSIQIKLENEGSDEDIETDVLYSPQMALKLALTEWLQEFGVPHQYSSRQVAHSGAKASVVDGTPLVAAPSLNATTVVTTVYQEPIMSQGAALSGEPTTLTKEEEKKQPDEEPMDMVVEKQEETDHKNDNQILSEIVEAKMAEELKPMDTDKESIAESKSPEMSMQEDCISDIAPMQTDEQTNKEQFVPGPNEKPLYTAEPVTLEDLQLLADLFYLPYEHGPKGAQMLREFQWLRANSSVVSVNCKGKDSEKIEEWRSRAAKFEEMCGLVMGMFTRLSNCANRTILYDMYSYVWDIKSIMSMVKSFVQWLGCRSHSSAQFLIGDQEPWAFRGGLAGEFQRLLPIDGANDLFFQPPPLTPTSKVYTIRPYFPKDEASVYKICREMYDDGVGLPFQSQPDLIGDKLVGGLLSLSLDYCFVLEDEDGICGYALGTVDVTPFIKKCKISWIPFMQEKYTKPNGDKELSEAEKIMLSFHEEQEVLPETFLANFPSLIKMDIHKKVTDPSVAKSMMACLLSSLKANGSRGAFCEVRPDDKRILEFYSKLGCFEIAKMEGFPKDVVILGRSL
With B1, the binding entry is recorded as “binds”.

Values taken from paper PMC9254885.
